This test is described as follows: qHTS Assay for Lipid Storage Modulators in Drosophila S3 Cells.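 On cell number change: cells counted by Cell Tracker Red CMTPX staining in the red channel.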 The conditions noted are these: BODIPY lipid droplet fluorescence, 18-24 h; for cell number change: measured here: cell count max response, cells fed with added oleic acid. The essentials: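 Drosophila S3 cells loaded with oleic acid (400 uM, as added) and compounds at several concentrations; lipid droplets imaged by 488-nm laser-scanning cytometry, 500–530 nm intensity and object ratio to cell channel. Percent activity normalized to 20 uM Triacsin C.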
On the technique in general: qHTS replaces the single test concentration by a dilution series.

Where [1] appears, read: measured here: cell number channel AC50, cells fed with added oleic acid.
Where [2] appears, read: measured here: lipid fluorescence (Fed channel) AC50, cells fed with added oleic acid.

This is one part of the list. These are further read-outs of the screen, such as a control signal, another cell line or another target. No call is given for them. Compounds called inactive in the main read-out are mostly missing here. Words in brackets tell the shape of the fitted curve; partial curves, single points and poor fits give uncertain potencies.

Consider `Cn1nnc(NC(=O)COc2ccc(C3CCCCC3)cc2)n1`, for which the cell number change was -32.9%. Also, the AC50 – broadly, the midpoint of the concentration-response curve, whichever way the signal moves – under setting [1] is 0.058 µM [falling, full curve, poor fit]. Also, the AC50 under setting [2] is 0.13 µM [falling, full curve, poor fit].
Turning to `COc1cc(C(=O)OCCNC(=O)c2ccccc2)cc(OC)c1OC`, the cell number change was -27.8%. Besides, the AC50 under setting [2] is 18.4 µM [falling, partial curve].
For `CN(C)C(=O)CN(c1ccc(F)c(Cl)c1)S(C)(=O)=O`, the cell number change came out at 67.6%.
Consider `O=C(CCCCCNC(=O)c1ccccc1)N=Nc1c(O)[nH]c2c(Br)cc(Br)cc12`, for which the AC50 under setting [2] was 13 µM [rising, partial curve, poor fit].
For the molecule `Cc1ccccc1CN(c1ccc(C(=O)NCc2ccccn2)cc1)S(C)(=O)=O`, the cell number change was -0.637%. Under setting [1], the AC50 was 6.51 µM [rising, single point]. Moreover, the AC50 under setting [2] is 6.51 µM [rising, single point].
Turning to `O=C(CSc1nc(O)cc(=O)n1-c1ccc(Cl)c(Cl)c1)Nc1ccc(Cl)cc1Cl`, the cell number change is -2.64%.
Regarding `O=C(Nc1ccc(Cl)cc1)OCCn1nnnc1C(c1ccccc1)N1CCOCC1` (stereo unspecified), the cell number change is 119%. Further, under setting [1], the AC50 was 29.1 µM [rising, single point].
For `O=C(O)COCC(=O)Nc1ccc2c(c1)CCC2`, the cell number change was 11.2%. The AC50 under setting [2] was 0.651 µM [falling, full curve].
Regarding `CC(=O)Nc1cccc(NC(=O)COC(=O)CO/N=C(\C)c2ccc3c(c2)OCO3)c1`, the cell number change turned out to be 37.3%.
On to `CC(=O)c1ccc(NC(=O)c2ccc(COc3ccccc3[N+](=O)[O-])o2)cc1`, for which the cell number change was -47.3%. In addition, the AC50 under setting [1] was 29.1 µM [falling, single point]. The AC50 under setting [2] is 29.1 µM [falling, single point].
Regarding `CCCCN1C(=O)C(CC(=O)NCC)SC1=Nc1ccccc1` (stereo unspecified), the cell number change is 6.52%. Also, the AC50 under setting [2] is 2.06 µM [rising, partial curve, poor fit].
Regarding `CN(C)CCN1C(=O)C(=O)/C(=C(/O)c2ccc(F)cc2)C1c1ccccc1` (stereo unspecified), the cell number change was -37.3%. Moreover, the AC50 under setting [1] was 0.00461 µM [falling, full curve, poor fit]. Also, the AC50 under setting [2] is 2.06 µM [falling, partial curve].
For `CCC(=O)N/C(=N/c1nc(C)cc(C)n1)Nc1cccc(OC)c1`, the cell number change came to 47.9%. In addition, under setting [1], the AC50 was 1.84 µM [rising, full curve]. For the same molecule, the AC50 under setting [2] is 3.66 µM [rising, partial curve].
On to `COc1ccccc1NS(=O)(=O)c1ccc(C(=O)N2CCCC(C(F)(F)F)C2)cc1` (stereo unspecified), for which the cell number change was -16.8%. Also, the AC50 under setting [1] was 6.51 µM [rising, single point]. Besides, the AC50 under setting [2] is 3.26 µM [rising, single point].
Regarding `COc1ccc(CN(CC(O)COc2cccc3[nH]cc(C)c23)C(C)(C)C)cc1` (stereo unspecified), the cell number change was -27.8%. Further, under setting [1], the AC50 was 0.116 µM [falling, full curve, poor fit].
With `CCNC(=O)NC(=O)C(C)OC(=O)CCS(=O)(=O)c1ccc(C)cc1` (stereo unspecified), the cell number change is -24.6%. Moreover, the AC50 under setting [1] is 3.26 µM [falling, full curve, poor fit]. In addition, the AC50 under setting [2] is 3.66 µM [falling, full curve].
`COCCNC(=O)c1onc(CSc2ccccc2)c1C(=O)NCCOC`: the cell number change is -19%.
Regarding `COC(=O)c1ccc(N=C2S/C(=C\c3cc(C)n(-c4cccnc4)c3C)C(=O)N2C)cc1`, the cell number change was -17.1%. For the same molecule, the AC50 under setting [2] was 29.1 µM [falling, single point].
Turning to `O=C(CCC1CCCCC1)NCc1ccncc1`, the AC50 under setting [2] was 6.51 µM [falling, single point].
Take `CCN(CC(=O)NCc1ccc(F)cc1)C(=O)c1cc2ccccc2o1`: the cell number change came to 5.24%. Further, under setting [2], the AC50 was 29.1 µM [rising, partial curve, poor fit].
Regarding `COC(=O)CCC(=O)c1ccc(OC)c(Cl)c1`, the cell number change worked out at 20.5%. Under setting [1], the AC50 is 0.651 µM [falling, full curve, poor fit]. Moreover, the AC50 under setting [2] is 0.731 µM [falling, partial curve, poor fit].
On to `COCC(=O)Nc1c(C(=O)Nc2ccc3c(c2)OCCO3)oc2ccccc12`, for which the cell number change was -12.8%. Moreover, the AC50 under setting [1] was 0.517 µM [rising, single point].
`Cc1nc(NCCc2ccccc2)sc1C(=O)N(C)C`: the cell number change was -7.94%. Moreover, the AC50 under setting [2] is 29.1 µM [rising, single point].
Take `O=C(CSc1ncnc2c1cnn2-c1ccc(F)cc1)NCc1ccc2c(c1)OCO2`: the cell number change was -9.16%. Moreover, the AC50 under setting [2] was 1.46 µM [falling, partial curve].
For `CN(Cc1ccc(F)cc1)Cc1nc(CCc2ccccc2)no1`, the cell number change amounted to 1.46%.
For `COc1ccc(CC(=O)n2[nH]c(=O)c3ccccc3c2=O)cc1OC`, the cell number change was -38.7%. Besides, the AC50 under setting [1] is 4.61 µM [falling, full curve]. In addition, the AC50 under setting [2] is 6.51 µM [falling, single point].
Regarding `Cc1cc(C(=O)O)c2ccccc2n1`, the cell number change was -0.299%. Also, the AC50 under setting [2] is 6.51 µM [falling, single point].
On to `O=c1cc(O)nc(-c2ccc(Cl)cc2)s1`, for which the cell number change was -40.6%. Under setting [1], the AC50 was 6.51 µM [falling, single point].
In the case of `CC(OC(=O)c1cc(=O)[nH]c2ccccc12)c1ccccc1` (stereo unspecified), the cell number change is -33.2%.
As for `CCN(CC)C(=O)C1CCN(S(=O)(=O)c2c(C)noc2/C=C/c2cccc(C)c2)CC1`, the cell number change is 11%. In addition, under setting [2], the AC50 was 0.731 µM [falling, single point].
As to `CCOC(=O)c1sc2nc(NC(=O)COc3ccccc3)sc2c1C`, the cell number change turned out to be 11.9%.
On to `COc1cccc(O)c1CN1CCC(C(=O)Nc2ccc(-c3cccc(C)c3)cc2)CC1`, for which the cell number change is -68.8%. Also, the AC50 under setting [1] is 8.2 µM [falling, partial curve]. Further, the AC50 under setting [2] was 29.1 µM [falling, single point].
As for `O=C(NCc1ccco1)C1CCN(S(=O)(=O)N2CCC3(CC2)OCCO3)CC1`, the AC50 under setting [1] was 6.51 µM [falling, single point].
In the case of `CCOc1ccccc1NC(=O)C(OC(=O)c1ccc(O)cc1)c1ccccc1` (stereo unspecified), the cell number change was -24.6%.
`Cc1ccc(S(=O)(=O)NCC(=O)NC2CC2)cc1`: the cell number change is -0.745%.
As for `CCCSC(=S)NC1CCS(=O)(=O)C1` (stereo unspecified), the cell number change is -19.2%. The AC50 under setting [2] is 0.206 µM [falling, full curve].
Turning to `CCOc1ccc(NC(=O)NNC(=O)C2CCC(C(C)(C)C)CC2)cc1` (stereo unspecified), the cell number change turned out to be 2.75%. Moreover, the AC50 under setting [2] is 0.651 µM [rising, full curve, poor fit].
In the case of `Cc1nnc(-c2ccccc2)nc1N(C)C`, the cell number change worked out at 19.5%. Also, the AC50 under setting [2] is 6.51 µM [falling, single point].
For `Cc1nn(-c2ccccc2)c(Cl)c1C(=O)OCC(=O)NCCc1ccccc1`, the cell number change is 23.8%. Also, the AC50 under setting [2] is 0.58 µM [rising, single point].
